Results on 4 substances are retold here after article PMC8390644.

The chains behind the UniProt entries cited, without tags or fusion partners. Where a name states a change or a piece, a line headed by the entry shows the natural chain unless it says otherwise.
UniProt P51532: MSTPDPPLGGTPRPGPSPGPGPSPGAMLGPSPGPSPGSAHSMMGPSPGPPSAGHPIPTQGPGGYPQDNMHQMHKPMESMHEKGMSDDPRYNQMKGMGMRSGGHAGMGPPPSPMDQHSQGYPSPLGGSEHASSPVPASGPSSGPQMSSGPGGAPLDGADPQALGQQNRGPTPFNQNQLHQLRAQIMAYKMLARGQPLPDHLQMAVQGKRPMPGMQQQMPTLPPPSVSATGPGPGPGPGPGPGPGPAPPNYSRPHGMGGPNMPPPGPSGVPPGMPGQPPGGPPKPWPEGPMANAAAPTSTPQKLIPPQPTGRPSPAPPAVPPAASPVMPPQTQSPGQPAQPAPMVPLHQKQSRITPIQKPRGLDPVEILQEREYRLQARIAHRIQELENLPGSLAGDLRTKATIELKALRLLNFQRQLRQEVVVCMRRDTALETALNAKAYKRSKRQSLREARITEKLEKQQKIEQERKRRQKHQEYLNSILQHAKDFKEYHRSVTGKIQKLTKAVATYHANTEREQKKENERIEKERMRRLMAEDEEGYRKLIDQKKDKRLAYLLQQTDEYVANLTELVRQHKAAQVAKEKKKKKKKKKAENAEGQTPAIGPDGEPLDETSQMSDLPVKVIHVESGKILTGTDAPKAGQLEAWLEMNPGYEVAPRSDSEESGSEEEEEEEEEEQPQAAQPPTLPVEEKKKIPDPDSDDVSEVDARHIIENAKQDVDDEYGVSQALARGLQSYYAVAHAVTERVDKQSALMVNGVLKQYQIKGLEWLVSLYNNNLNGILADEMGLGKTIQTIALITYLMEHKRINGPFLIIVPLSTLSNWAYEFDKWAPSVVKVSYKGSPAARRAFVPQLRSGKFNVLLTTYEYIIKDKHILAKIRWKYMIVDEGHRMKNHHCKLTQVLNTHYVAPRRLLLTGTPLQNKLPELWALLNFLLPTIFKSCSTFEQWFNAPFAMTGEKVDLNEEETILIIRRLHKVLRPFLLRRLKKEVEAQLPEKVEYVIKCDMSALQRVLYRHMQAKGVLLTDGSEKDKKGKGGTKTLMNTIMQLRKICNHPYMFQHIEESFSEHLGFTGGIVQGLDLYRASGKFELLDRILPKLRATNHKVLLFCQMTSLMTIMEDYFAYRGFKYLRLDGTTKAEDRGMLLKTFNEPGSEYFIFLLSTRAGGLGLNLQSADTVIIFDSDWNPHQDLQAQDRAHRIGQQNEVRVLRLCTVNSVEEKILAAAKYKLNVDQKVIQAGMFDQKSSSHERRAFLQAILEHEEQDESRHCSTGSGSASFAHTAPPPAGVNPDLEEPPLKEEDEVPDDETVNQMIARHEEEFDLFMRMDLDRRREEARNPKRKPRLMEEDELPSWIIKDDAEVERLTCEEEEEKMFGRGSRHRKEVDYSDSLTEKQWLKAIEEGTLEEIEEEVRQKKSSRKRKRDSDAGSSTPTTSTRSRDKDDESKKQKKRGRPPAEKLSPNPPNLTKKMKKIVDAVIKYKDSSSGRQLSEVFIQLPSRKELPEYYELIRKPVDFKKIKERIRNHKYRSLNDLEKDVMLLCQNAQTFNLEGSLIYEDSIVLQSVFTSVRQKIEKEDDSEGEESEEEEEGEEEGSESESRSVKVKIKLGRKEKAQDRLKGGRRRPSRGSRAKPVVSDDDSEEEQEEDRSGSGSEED
UniProt P51531: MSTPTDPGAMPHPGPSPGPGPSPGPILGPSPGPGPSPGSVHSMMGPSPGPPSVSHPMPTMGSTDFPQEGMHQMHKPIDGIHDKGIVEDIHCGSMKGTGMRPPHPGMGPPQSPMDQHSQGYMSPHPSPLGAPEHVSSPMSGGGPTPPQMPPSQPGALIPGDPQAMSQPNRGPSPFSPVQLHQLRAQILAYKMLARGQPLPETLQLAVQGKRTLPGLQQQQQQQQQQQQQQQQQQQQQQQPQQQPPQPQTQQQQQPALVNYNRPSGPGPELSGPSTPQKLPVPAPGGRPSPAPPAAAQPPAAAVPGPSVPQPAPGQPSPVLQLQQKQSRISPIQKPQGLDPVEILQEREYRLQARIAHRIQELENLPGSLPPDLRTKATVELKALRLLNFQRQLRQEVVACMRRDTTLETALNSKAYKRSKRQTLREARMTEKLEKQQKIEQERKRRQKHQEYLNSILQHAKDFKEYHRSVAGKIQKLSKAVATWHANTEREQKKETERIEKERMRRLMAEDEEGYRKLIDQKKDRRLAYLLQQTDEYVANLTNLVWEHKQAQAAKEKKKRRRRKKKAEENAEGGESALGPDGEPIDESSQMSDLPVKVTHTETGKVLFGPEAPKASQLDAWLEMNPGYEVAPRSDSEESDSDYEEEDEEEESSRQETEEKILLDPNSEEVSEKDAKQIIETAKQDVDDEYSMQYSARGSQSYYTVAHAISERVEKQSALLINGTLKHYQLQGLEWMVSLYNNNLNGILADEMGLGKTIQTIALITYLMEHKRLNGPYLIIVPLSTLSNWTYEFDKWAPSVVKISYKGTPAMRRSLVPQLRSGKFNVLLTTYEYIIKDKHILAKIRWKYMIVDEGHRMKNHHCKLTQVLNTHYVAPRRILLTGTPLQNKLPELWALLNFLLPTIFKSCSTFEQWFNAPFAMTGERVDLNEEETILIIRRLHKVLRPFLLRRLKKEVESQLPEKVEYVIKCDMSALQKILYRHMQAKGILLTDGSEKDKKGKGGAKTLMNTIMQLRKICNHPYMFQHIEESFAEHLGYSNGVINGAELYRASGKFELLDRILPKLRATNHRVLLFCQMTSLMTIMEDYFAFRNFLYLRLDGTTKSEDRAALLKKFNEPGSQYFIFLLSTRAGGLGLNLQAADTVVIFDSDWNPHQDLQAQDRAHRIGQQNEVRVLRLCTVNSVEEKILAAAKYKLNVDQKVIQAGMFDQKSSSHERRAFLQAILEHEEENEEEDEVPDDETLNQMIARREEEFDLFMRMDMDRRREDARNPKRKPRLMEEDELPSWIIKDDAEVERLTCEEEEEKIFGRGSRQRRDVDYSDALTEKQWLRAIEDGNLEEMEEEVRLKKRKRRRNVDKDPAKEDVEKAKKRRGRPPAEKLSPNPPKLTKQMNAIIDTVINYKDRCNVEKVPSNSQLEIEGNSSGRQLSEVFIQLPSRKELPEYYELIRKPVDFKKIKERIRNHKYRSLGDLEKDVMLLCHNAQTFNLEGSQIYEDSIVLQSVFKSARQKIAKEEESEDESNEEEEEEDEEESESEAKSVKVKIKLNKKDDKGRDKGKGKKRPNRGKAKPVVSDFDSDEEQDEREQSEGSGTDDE
UniProt Q02880: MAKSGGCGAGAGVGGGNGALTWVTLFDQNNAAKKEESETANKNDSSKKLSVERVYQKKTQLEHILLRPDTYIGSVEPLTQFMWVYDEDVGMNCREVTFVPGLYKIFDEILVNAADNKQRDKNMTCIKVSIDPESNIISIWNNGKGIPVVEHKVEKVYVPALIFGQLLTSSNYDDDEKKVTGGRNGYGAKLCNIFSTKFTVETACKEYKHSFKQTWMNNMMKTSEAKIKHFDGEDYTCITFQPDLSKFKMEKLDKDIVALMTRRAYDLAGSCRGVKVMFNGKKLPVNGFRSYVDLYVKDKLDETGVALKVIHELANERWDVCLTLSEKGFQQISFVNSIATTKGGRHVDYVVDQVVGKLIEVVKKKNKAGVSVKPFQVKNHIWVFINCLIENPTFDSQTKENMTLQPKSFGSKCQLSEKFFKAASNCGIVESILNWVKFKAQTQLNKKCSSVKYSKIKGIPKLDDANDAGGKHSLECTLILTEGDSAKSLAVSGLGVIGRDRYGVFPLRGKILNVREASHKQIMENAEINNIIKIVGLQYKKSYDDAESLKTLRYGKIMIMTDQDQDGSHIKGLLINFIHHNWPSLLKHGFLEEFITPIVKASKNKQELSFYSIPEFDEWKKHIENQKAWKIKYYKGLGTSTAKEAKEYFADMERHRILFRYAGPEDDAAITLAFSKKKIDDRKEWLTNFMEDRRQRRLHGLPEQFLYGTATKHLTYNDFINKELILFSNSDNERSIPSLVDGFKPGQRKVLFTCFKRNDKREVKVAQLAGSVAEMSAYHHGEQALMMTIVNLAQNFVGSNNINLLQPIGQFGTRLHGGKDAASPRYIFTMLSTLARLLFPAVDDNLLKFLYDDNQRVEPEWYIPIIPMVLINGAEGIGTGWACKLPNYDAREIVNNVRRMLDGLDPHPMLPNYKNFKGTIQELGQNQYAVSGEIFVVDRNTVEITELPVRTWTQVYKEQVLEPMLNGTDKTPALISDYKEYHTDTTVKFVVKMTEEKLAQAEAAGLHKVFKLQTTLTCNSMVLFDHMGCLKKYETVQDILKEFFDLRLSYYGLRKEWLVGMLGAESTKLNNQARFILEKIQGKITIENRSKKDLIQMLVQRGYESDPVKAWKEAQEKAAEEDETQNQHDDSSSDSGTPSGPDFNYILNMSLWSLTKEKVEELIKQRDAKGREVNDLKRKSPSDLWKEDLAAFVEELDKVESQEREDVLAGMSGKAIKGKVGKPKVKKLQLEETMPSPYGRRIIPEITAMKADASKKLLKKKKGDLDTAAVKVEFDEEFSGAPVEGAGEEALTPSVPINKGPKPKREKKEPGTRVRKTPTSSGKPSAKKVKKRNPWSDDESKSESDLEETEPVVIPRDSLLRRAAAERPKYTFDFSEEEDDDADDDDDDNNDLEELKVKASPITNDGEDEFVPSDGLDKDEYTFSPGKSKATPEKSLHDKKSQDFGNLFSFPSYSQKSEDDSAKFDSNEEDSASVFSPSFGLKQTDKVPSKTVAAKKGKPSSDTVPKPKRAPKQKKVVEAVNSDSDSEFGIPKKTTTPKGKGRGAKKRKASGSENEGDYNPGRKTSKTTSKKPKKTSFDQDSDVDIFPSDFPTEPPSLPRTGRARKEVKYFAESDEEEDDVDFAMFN
UniProt Q01860: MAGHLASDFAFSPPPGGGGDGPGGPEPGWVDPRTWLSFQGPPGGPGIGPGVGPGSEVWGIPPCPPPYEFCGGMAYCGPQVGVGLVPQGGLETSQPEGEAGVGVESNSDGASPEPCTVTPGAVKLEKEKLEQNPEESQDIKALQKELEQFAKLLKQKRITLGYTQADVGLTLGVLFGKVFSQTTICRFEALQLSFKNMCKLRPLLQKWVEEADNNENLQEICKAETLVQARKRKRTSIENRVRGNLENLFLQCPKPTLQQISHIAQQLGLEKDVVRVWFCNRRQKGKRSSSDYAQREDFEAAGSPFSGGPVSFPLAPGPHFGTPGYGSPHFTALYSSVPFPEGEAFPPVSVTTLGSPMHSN
UniProt P28370: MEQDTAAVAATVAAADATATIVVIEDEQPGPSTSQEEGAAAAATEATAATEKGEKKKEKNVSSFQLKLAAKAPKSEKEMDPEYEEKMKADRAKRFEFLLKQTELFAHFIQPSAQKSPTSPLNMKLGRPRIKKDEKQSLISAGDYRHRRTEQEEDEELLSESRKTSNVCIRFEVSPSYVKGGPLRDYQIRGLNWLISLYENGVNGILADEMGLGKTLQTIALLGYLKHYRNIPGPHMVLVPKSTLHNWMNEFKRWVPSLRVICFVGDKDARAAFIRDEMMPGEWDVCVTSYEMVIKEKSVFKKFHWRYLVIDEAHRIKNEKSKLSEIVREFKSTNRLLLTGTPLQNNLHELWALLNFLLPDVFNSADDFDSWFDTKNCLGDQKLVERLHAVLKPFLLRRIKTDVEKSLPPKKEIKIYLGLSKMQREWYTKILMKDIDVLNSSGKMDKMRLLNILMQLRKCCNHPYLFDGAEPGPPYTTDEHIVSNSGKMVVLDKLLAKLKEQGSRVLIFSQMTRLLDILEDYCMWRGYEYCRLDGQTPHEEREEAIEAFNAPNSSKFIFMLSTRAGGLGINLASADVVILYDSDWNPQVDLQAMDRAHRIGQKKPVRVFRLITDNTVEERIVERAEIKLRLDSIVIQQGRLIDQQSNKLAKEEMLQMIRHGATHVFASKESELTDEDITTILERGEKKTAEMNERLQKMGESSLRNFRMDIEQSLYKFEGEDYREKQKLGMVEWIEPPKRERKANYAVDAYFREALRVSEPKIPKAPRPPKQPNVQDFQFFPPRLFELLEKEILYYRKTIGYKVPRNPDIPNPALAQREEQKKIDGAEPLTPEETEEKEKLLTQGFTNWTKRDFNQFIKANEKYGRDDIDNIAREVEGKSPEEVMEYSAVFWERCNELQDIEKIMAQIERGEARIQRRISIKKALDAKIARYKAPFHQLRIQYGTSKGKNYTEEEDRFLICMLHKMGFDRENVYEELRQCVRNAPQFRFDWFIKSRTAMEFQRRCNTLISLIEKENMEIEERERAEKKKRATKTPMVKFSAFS

Test [1] addresses BRG1 (SMARCA4) (human (endogenous in hESCs)) (UniProt P51532). Briefly: co-IP; regular condition: same protocol as the OCT4 antibody IP-MS; nuclear extract of WIBR2 and WIBR3 hESCs in primed and naïve (4i/L/A or 5i/L/A) conditions; IP with OCT4, BRG1 or BRM antibody against IgG control, western blot of endogenous proteins. (In general: Immunoblotting shows a protein as a band on a membrane.)

Test [2] deals with BRM (SMARCA2) (human (endogenous in hESCs)) (UniProt P51531). Put plainly: co-IP; high-salt (more stringent) condition: proteins extracted with buffer C (420 mM NaCl), antibody overnight, beads washed four times with buffer C; naïve hESCs, endogenous proteins.
The target is the same in test [3]. Put plainly: co-IP; regular condition: same protocol as the OCT4 antibody IP-MS; nuclear extract of WIBR2 and WIBR3 hESCs in primed and naïve (4i/L/A or 5i/L/A) conditions; IP with OCT4, BRG1 or BRM antibody against IgG control, western blot of endogenous proteins.

No constants are given. Whether binding was seen depends on the method and setting. Binding seen in cells or lysates may run through a third protein. Some binding calls cover weakened binding; strength is not graded here.

TOP2B (from UniProt Q02880 1-1626): the binding entry in test [1] is on record as “binds”. With BAF53A (from UniProt O96019 1-429), in test [2], the binding result is recorded as “binds”. Consider OCT4 (from UniProt Q01860 1-360), for which the binding result in test [1] and in test [3] was “binds” each time. Turning to “SNF2L (SMARCA1) (from UniProt P28370 1-1042)”, the binding result in test [1] is “binds”.
